Results on 113 compounds are retold here after ChEMBL document CHEMBL4296182, “CO-ADD screening of NIH NCI Diversity Set V”.

The list shows a part of the results. Entries with a potency or affinity are not part of this list.

This assay concerns Pseudomonas aeruginosa. The conditions noted are these: Concentration 20 uM; ASSAY_TEST Inhibition of Bacterial Growth; detection method Absorption (OD600); MEDIA CAMHB; plate type 384well; NBS; CORNING #3640; time 18 hr.
Usually Inhibition stands for the relative decrease from the control value, in per cent. For the compound `NC(=O)NC1NC(=O)NC1=O` (stereo not drawn) [ALLANTOIN], the Inhibition amounted to 15.75%. In the case of `CCCSc1nc2c(c(=O)n(C)c(=O)n2C)n1C`, the Inhibition came out at 1.88%. To `Nc1ccc(/N=N/c2ccc(O)cc2)c(N)n1` belongs -9.14%; to `CCOC(=O)c1cc2c(OC)c(OC)ccc2c2ncc(C#N)c(O)c12`, -12.49%. To `Cc1ccc2nc(Cl)cc(=O)n2c1` belongs -9.28%; to `C(=C\c1ccc(/C=C/c2ccccc2)nn1)/c1ccccc1`, 3.75%; to `Cc1ccc(/N=N\c2c(O)ccc3[nH]nnc23)cc1`, 9.05%. Next, `CNC(=O)Nc1ccc(S(N)(=O)=O)cc1`: 1.61%; `CSc1nc(O)cc(Cl)n1`: 17.53%. For `COc1ccc(C(=S)N2CCN(c3cccc(Cl)c3)CC2)cc1`, the Inhibition was 18.9%. To `CCOC(=O)c1nnsc1-c1ccc(-c2snnc2C(=O)OCC)cc1` belongs 22.55%.

For `C/C(=N\O)C1CC(CC(=O)O)C1(C)C` (stereo not drawn), the Inhibition is given as 4.37%. In the case of `CCCNC(=O)Nc1ccc(C)cc1C`, the Inhibition is -13.16%. For `CC(C)(C)CC(C)(C)N1CN=C(S)NC1`, the Inhibition stood at 8.12%.

Regarding `O=C1OCC/C1=C\c1ccc(O)cc1`, the Inhibition is listed as -1.55%. Consider `O=C(Cn1ccc(=O)[nH]c1=O)Nc1ccc(C(=O)O)c(O)c1`, for which the Inhibition stood at 23.69%. Next, `c1ccc2sc(SCSc3nc4ccccc4s3)nc2c1`: 9.26%; `O=S1(=O)CCC(N(/N=C/c2ccco2)c2ccccc2)C1` (stereo not drawn): 8.08%; `CC1=CC2C(C(O)CC3(C)C2CC(C)C32OCOC23COCO3)C2(C)C/C(=C/O)C(=O)C=C12` (stereo not drawn): 18.62%.

For `Clc1nnc2c3ccccc3ccn12`, the Inhibition amounted to 5.64%.

Consider `CSc1nc(Cl)c(Br)c(Nc2cnc(O)nc2O)n1`, for which the Inhibition is given as 9.57%. To `N#CC1=C(Nc2ccccc2Cl)SC(c2ccncc2)NC1=O` (stereo not drawn) belongs 9.53%; to `CN(C)N1C(=O)c2c(Cl)c(Cl)c(Cl)c(Cl)c2C1=O`, 4.73%. For the compound `Cc1cc(NC(=O)Nc2cc(Cl)ccc2C)no1`, the Inhibition was -7.38%. For the compound `c1ccc(-c2ccc3c(c2)NC(C2Nc4cc(-c5ccccc5)ccc4O2)O3)cc1` (stereo not drawn), the Inhibition turned out to be 27.19%. On to `Clc1cc2c(c(CSc3nc4ccccc4n4cccc34)c1)OCOC2`, for which the Inhibition is 5.73%. To `CCCCCCC(C)OC(=O)c1ccccc1C(=O)O` (stereo not drawn) belongs 7.8%; to `O=C(Nc1ccc(Br)cc1)Nc1ccccc1Cl`, 26.46%.

Turning to `CCC(C)Oc1nc2c(c(=O)n(C)c(=O)n2C)n1C` (stereo not drawn), the Inhibition stood at 8.41%. Turning to `O=C(O)C1=NN(c2cc(Cl)c(S(=O)(=O)O)cc2Cl)C(=O)C1`, the Inhibition worked out at 30.79%. Next, `O=C(NCc1ccco1)Nc1ccc([N+](=O)[O-])cc1`: 3.36%; `Nc1nc(N)c(/N=N/c2ccc(S(N)(=O)=O)cc2)c(O)n1`: 6.5%; `CN(C)CCCN1c2ccc3ccccc3c2Sc2cccc(Cl)c21`: 26.35%. Next, `NC(=O)c1ncn2c(=O)n(CCCl)nnc12` [MITOZOLOMIDE]: 5.29%; `CC1OC1c1ccc(-c2ccc(C3OC3C)cc2)cc1` (stereo not drawn): 7.26%; `COC(=O)c1c[n+]([O-])ccc1OC`: -11.94%.

Regarding `COc1ccc(C(=S)N2CCN(c3ccccc3Cl)CC2)cc1OC`, the Inhibition stood at 26.87%. Turning to `CSc1nc(N)c(C(=O)NC2CCCCC2)s1`, the Inhibition was determined as 6.56%. To `Cc1cccc2cc3cccc(C)c3nc12` belongs -7.22%. Take `O=C1C(Cl)=C(O)C2(Cl)C(Cl)=C(Cl)C12Cl` (stereo not drawn): the Inhibition came to 1.43%. To `N=C(N)Nc1nc2cc([N+](=O)[O-])ccc2[nH]1` belongs 14.75%; to `CC(C)(CO)N1CCN(C(S)=Nc2ccccc2)CC1`, 1%; to `O=C(Nc1ccc2ncccc2c1)Nc1ccc2ncccc2c1`, 18.61%. Next, `O=C(Nc1cccc([N+](=O)[O-])c1)c1cc2ccccc2cc1O`: 21.6%. To `NNC(=O)CNc1cccc(Br)c1` belongs 8.54%; to `O=C(Nc1cc(-c2ccccc2)[nH]n1)c1ccc(Cl)cc1`, 14.87%.

In the case of `Cc1cc(O)c2c(O)[nH]nc2n1`, the Inhibition amounted to 7.39%. Next, `COC1OC(O)C(NC(=O)C(F)(F)F)CC1O` (stereo not drawn): 6.88%; `Nc1cc([N+](=O)[O-])ccc1N1C(=O)CCCC1=O`: -10.8%. Take `Cc1cc(S)nc(S)n1`: the Inhibition is 23.56%. In the case of `Fc1ccc(-c2cc(-c3cccs3)cc(-c3ccccc3)n2)cc1`, the Inhibition is recorded as -3.81%.

For `Oc1cc(CNC2CCCCC2)c(O)cc1CNC1CCCCC1`, the Inhibition came to 10.65%. With `CCOc1nc(OCC)c2cnn(C)c2n1`, the Inhibition was 3.02%. For `COc1cc(/C=N/N=c2\[nH]c3c(=O)n(C)c(=O)n(C)c3[nH]2)ccc1O`, the Inhibition is 25.45%. Next, `O=c1c2ccccc2ncn1-c1ccc(Cl)cc1`: 21.07%; `O=C(O)/C(=C/c1ccccc1)c1ccccc1`: 16.48%. Next, `O=C(Nc1ccc(Oc2ccc(NC(=O)Nc3ccc([N+](=O)[O-])cc3)cc2)cc1)Nc1ccc([N+](=O)[O-])cc1`: 11.51%; `COc1cnc(SC)nc1Nc1ccc(C#N)cc1`: 13.16%. Next, `CCOC(=O)N1C/C(=C\c2ccccc2)C(=O)/C(=C/c2ccccc2)C1`: 20.83%. With `CC1(C)CC2(C)OC2C2(C1)N=N/C(=N/c1ccccc1)O2` (stereo not drawn), the Inhibition amounted to 19.19%.

For the compound `CC(=O)[C@H]1CC[C@H]2[C@@H]3CCC4=CC(=O)C=C[C@]4(C)[C@H]3C(=O)C[C@]12C`, the Inhibition is 5.7%. Consider `Cc1ccc(NC(=O)N2CCCCC2)cc1NC(=O)N1CCCCC1`, for which the Inhibition is on record as 20.13%.

As to `Oc1ccc(Nc2ccnc3cc(Cl)ccc23)cc1`, the Inhibition was found to be 1.99%. Next, `O=C(Oc1cccnc1O)c1cccc(Cl)c1`: 2.75%; `C=CCNC(=S)NCC=C`: 10.46%. On to `O=C1C2C3C=CC(CC3)C2S(=O)(=O)C2C3C=CC(CC3)C12` (stereo not drawn), for which the Inhibition came out at 23.93%. For the compound `COCCn1c2nc(=O)n(-c3ccccc3)c(=O)c-2nc2ccccc21`, the Inhibition amounted to 15.01%. `CN(C)S(=O)(=O)Nc1ccccn1`: the Inhibition came out at 4.84%. For the compound `N#CC1=C(Nc2ccccc2Cl)SC(c2ccccc2O)NC1=O` (stereo not drawn), the Inhibition is recorded as 14.86%. As to `CN(C)S(=O)(=O)Nc1cccc(Br)c1`, the Inhibition is listed as 1.49%. In the case of `CC1CCC(C(C)C)C(NC(=O)c2ccncc2)C1` (stereo not drawn), the Inhibition turned out to be 14.79%.

Turning to `Cc1ccc(NC(=O)Nc2c(Cl)cccc2Cl)cn1`, the Inhibition is reported as -9.32%.

`Cc1cccc(N=C(S)Nc2cccc(C)n2)n1`: the Inhibition was 3.23%. Next, `Cc1cccc(Nc2sc(C(=O)c3cc4cc(Cl)ccc4o3)c(N)c2C#N)c1`: 11.06%; `Cn1c(=O)c2c(nc(Cc3ccccc3)n2C)n(C)c1=O`: -2.75%.

On to `O=C1c2ccccc2C(=O)c2[nH]cnc21`, for which the Inhibition was -13.67%. As for `COC(=O)c1c(-c2ccccc2)[nH]c(-c2nccc3ccccc23)c1C(=O)OC`, the Inhibition is 20.93%. For the compound `Cc1nc([C@H]2CC[C@H]3[C@@H]4CCC5=CC(=O)CC[C@]5(C)[C@H]4CC[C@]23C)cs1`, the Inhibition came to 23.23%. Next, `O=C(O)c1ccc2c(c1Nc1ccccc1)C(=O)c1ccccc1C2=O`: 16.49%; `N#C/C(=C\c1cc(O)c(O)c(O)c1)C(N)=O`: 1.95%. To `CC1=CC(=O)CC(C)(C)C1(O)/C=C/C(C)=C/C(=O)O` (stereo not drawn) belongs 1.8%. Next, `NC(=O)Nc1n[nH]c(-c2ccccc2)n1`: -18.28%. For the compound `CCOC(=O)c1nc(O)c2c3c(sc2n1)CCCC3`, the Inhibition is reported as 24.68%. Next, `c1ccc(CSc2nnc3c4ccccc4c4ccccc4c3n2)cc1`: 1.63%; `OC1(Cc2ccccc2)CCNCC1`: 9.85%; `Cc1cccnc1NC(=O)c1csnn1`: 8.18%. Next, `CSc1nc(O)nnc1Sc1ccccc1`: 9.51%. Next, `CO/N=C1/C=C(C)C(=O)C(C)=C1C`: 15.59%; `N=C(N)NC(=N)Nc1ccc(O)cc1`: 16.2%. As to `Cc1nc(Br)c(Br)c(C)c1Br`, the Inhibition was 20.73%. Next, `CC(C)c1cc(C(C)C)n2nc(N)nc2n1`: 3.42%; `COc1ccc(Br)c2c1C(=O)CC2`: 18.13%; `CNc1nc(SC)n(C)c(=O)c1N=O`: 23.63%. To `O=C(O)c1ccc(OCCOc2ccccc2)cc1` belongs 15.72%. `CN(NC(=O)C(=O)NCc1ccco1)C(=O)NC1CCCCC1`: the Inhibition is recorded as -7.83%. As for `CSc1cccc(NC(=O)OC2CCCCCCCCCCC2)c1`, the Inhibition is on record as 19.69%. Next, `Nc1ccc2c(c1)N=[N+]([O-])c1cc(N)ccc1C2`: 29.8%. Regarding `CN1CCC=C(C(=O)N2c3ccccc3Sc3ccc(Cl)cc32)C1.O=C(O)CCC(=O)O`, the Inhibition was found to be 30.37%. Next, `O=C1c2ccccc2NC(c2cc(Cl)cc(Cl)c2O)N1CCc1ccccn1` (stereo not drawn): 21.27%; `NC(=O)c1cc(Br)cc(C2CCCCC2)c1O`: 5.79%. Next, `CCOC(=O)CCC1(C(=O)OC)C(=O)CCCCC/C=C/1C(=O)OC` (stereo not drawn): -9.87%; `CC(=O)Nc1cccc(NC(C)=O)n1`: 21.77%.

As to `O=C1c2ccccc2C(O)(c2ccccc2)N1c1ccncc1` (stereo not drawn), the Inhibition is given as 12.76%. To `COc1ccc2nc(-c3ccc(Cl)cc3)cc(C(=O)O)c2c1` belongs 9.71%; to `Cc1cc(O)cc2c1[C@H]1CC[C@]3(C)C(=O)CC[C@H]3[C@@H]1C=C2`, 7.41%. `CCCC1OC(c2cc3c(cc2Cl)OCO3)OCC1CC` (stereo not drawn): the Inhibition is 21.15%.

`N#Cc1c(N)nc(N)nc1Nc1ccc(Br)cc1`: the Inhibition was 7.2%. For `S=C(Sc1ccc(Cl)cc1)Sc1ccc(Cl)cc1`, the Inhibition is given as 18.41%. As for `Cn1c2c(sc1=O)CCC2`, the Inhibition is 11.4%. Next, `CC1=NN(c2ccccc2)C(=O)C1C(=S)SC1CC(=O)NC1=O` (stereo not drawn): -3.19%. Next, `CCOP(=O)(OCC)/C(C#N)=C/c1c[nH]c2ccccc12`: 22.11%; `Nc1ccc(NC(=O)c2ccc(C(=O)Nc3ccc(N)cc3)cc2)cc1`: 17.35%. On to `N#Cc1cnn(-c2cccc(Cl)c2)c1-n1cccc1`, for which the Inhibition amounted to 24.75%.
